The whole screen tested about 400,000 compounds, of which about 13,000 (3.2%) were called active. The shares of active, inactive and inconclusive entries below differ from those in the screen. Calls come from the whole dose curve; as a rule, active = well fitted cell-killing curve with a large enough effect; inconclusive = small, poorly fitted or top-dose-only effect, or effect the other way; inactive = flat fitted curve, though single readings scatter. Potencies beside an inconclusive call are fits to weak or partial responses and may not hold up.
Experiment: qHTS assay for MDR1-selective chemotherapeutics: Primary screen using the drug-selected MDR subline cells KB-V1; note: nearly all actives have a fitted effect of over 60% in size
Conditions: KB-V1 MDR cells viability, CellTiter-Glo, 72 h; activity change, negative = cytotoxicity: at 46.1 µM (top of the series)
Summary of the method: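 Cytotoxicity toward P-gp-expressing KB-V1 cells was determined as loss of CellTiter-Glo luminescence after 72 h at 37 degrees C. Compounds were tested in quantitative HTS format across a concentration range, with curves fitted to normalized data.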
% is set by controls: 0 for no effect and ±100 for the full control effect; potency is the fitted concentration of half-maximal effect.

| Structure (SMILES) | Potency | activity change, negative = cytotoxicity |
| --- | --- | --- |
| O=C1/C(=C\c2ccncc2)CCc2ccccc21 | inconclusive: 29.1 µM [cytotoxic, single point] |  |
| COc1ccc(C(C)=O)cc1Cn1c(C)c(C(=O)NCc2cccc(C)c2)sc1=O | inconclusive: 9.2 µM [cytotoxic, partial curve] |  |
| O=C(Nc1nnc(CSCc2ccc(F)cc2)s1)c1cccc([N+](=O)[O-])c1 | active: 4.61 µM |  |
| COc1ccc(-c2nc(N)nc(C(F)(F)F)c2-c2csc(C)n2)c(O)c1 |  | inconclusive: -0.296% |
| C=CCn1c(C)cc(C(=O)Cn2nc(C(=O)O)c3ccccc3c2=O)c1C | inactive |  |
| CC(C)(O)C#Cc1ccc(N2C(c3ccsc3)=Cc3ccc(F)cc3C2c2c[nH]c3ccc(C#N)cc23)cc1 (stereo not drawn) | inconclusive: 18.4 µM [cytotoxic, single point] |  |
| COc1cc2c(-c3ccccc3O)nc3c(c(C)nn3-c3ccccc3)c2cc1OC | inconclusive: 8.2 µM [rising, partial curve, poor fit] |  |
| Cc1cc(N2CCOCC2)nc(NCc2ccccc2)n1 | inconclusive: 25.9 µM [cytotoxic, partial curve, poor fit] |  |
| COc1ccc(C(CNC(=O)C(C)(C)Oc2ccc(Cl)cc2)N2CCCCC2)cc1 (stereo not drawn) | inconclusive: 1.46 µM [cytotoxic, full curve] |  |
| Cc1oc(=O)c(NC(=O)c2cccc(Cl)c2)cc1C(=O)c1ccccc1 | inconclusive: 20.6 µM [cytotoxic, single point] |  |
| CC1CCN(S(=O)(=O)c2cccc(C(=O)Nc3ccccc3)c2)CC1 | inconclusive: 29.1 µM [cytotoxic, single point] |  |
| NC(=O)c1cc[n+](Cc2ccccc2Cl)cc1 | inconclusive: 29.1 µM [rising, single point] |  |
| COC(C/C=C\[C@H](O)COCc1ccccc1)OC | inactive |  |
| CCOC(=O)Cn1nc(-c2ccc(F)cc2)oc1=O | inactive |  |
| COc1ccccc1NS(=O)(=O)c1ccc2c(c1)n(C)c(=O)n2C | inconclusive: 29.1 µM [cytotoxic, single point] |  |
| O=C(CN1CCCC1)N/N=C/c1c(O)ccc2ccccc12 | inactive |  |
| Nn1c(SCC(=O)Nc2ccc3c(c2)CCC3)nnc1C1CC1 |  | inconclusive: 26.9% |
| Cc1nn(CCOc2ccccc2)c(=O)n1-c1ccccc1F | inconclusive: 16.4 µM [cytotoxic, single point] |  |
| COc1ccc(NC(=O)C2(N(C(=O)Cn3nnnc3N)c3ccc(OC)cc3)CCCCC2)cc1 | inconclusive: 6.51 µM [rising, partial curve, poor fit] |  |
| COCC1CCN(C(=O)c2cc(COc3ccc(-n4cncn4)cc3)on2)C1 (stereo not drawn) | inconclusive: 16.4 µM [cytotoxic, partial curve, poor fit] |  |
| CCCc1cc(=O)[nH]c(SCC(=O)N2CCCCCC2)n1 | inconclusive: 0.0411 µM [rising, full curve] |  |
| COc1ccc(C(=O)N2CCCC(CCC(=O)N3CCN(c4ccccn4)CC3)C2)cc1 (stereo not drawn) | active: 13 µM |  |
| Cc1csc(SC(C)c2nc3scc(-c4ccccc4)c3c(=O)[nH]2)n1 (stereo not drawn) | active: 9.2 µM |  |
| CCOc1ccc(-c2nnn(CC(=O)NCc3ccco3)n2)cc1OCC | inactive |  |
| COc1ccc(-c2c(C#N)c(N)nc3c2CCc2ccccc2-3)cc1OC | active: 5.17 µM |  |

A different layout for part of the listing above.
Structure (SMILES) | Potency | activity change, negative = cytotoxicity
COc1ccc(C(C)=O)cc1Cn1c(C)c(C(=O)NCc2cccc(C)c2)sc1=O | inconclusive: 9.2 µM [cytotoxic, partial curve] | 
O=C(Nc1nnc(CSCc2ccc(F)cc2)s1)c1cccc([N+](=O)[O-])c1 | active: 4.61 µM | 
COc1ccc(-c2nc(N)nc(C(F)(F)F)c2-c2csc(C)n2)c(O)c1 |  | inconclusive: -0.296%
C=CCn1c(C)cc(C(=O)Cn2nc(C(=O)O)c3ccccc3c2=O)c1C | inactive | 

(further entries)

| Structure (SMILES) | Potency | activity change, negative = cytotoxicity |
| --- | --- | --- |
| O=c1[nH]c2cc3c(cc2cc1CN(Cc1nnnn1CC1CCCO1)C1CCCC1)OCO3 (stereo not drawn) | inconclusive: 16.4 µM [cytotoxic, partial curve, poor fit] |  |
| CCN(CC)C(=O)CSc1nc2cc3c(cc2c(=O)n1CCCCCC(=O)NCc1ccc(OC)cc1)OCO3 | inconclusive: 2.59 µM [cytotoxic, partial curve, poor fit] |  |
| Cc1cnc(NC(=O)C2CC(=O)N(c3ccc4c(c3)OCCO4)C2)s1 (stereo not drawn) | active: 14.6 µM |  |
| Cc1sc2ncnc(N3CCC(C(=O)Nc4ccc(C#N)cc4)CC3)c2c1C | inconclusive: 3.66 µM [cytotoxic, partial curve] |  |
| Cc1nc(N2CCOCC2)nc(N2CCN(c3ccccc3)CC2)c1[N+](=O)[O-] | inconclusive: 5.8 µM [cytotoxic, partial curve] |  |
| COc1ccc(/C=N/n2c(-c3n[nH]c4c3CCC4)n[nH]c2=S)cc1 | inconclusive: 0.116 µM [rising, full curve] |  |
| COCCNC(=S)N1CCOCC1 | inconclusive: 18.4 µM [rising, single point] |  |
| Cc1ccccc1OCCCn1c(CO)nc2ccccc21 | inconclusive: 23.1 µM [cytotoxic, single point] |  |
| COc1ccc(Cc2ccccc2C(=O)O)cc1 | inactive |  |
| O=C(CN1CCN(S(=O)(=O)c2ccccc2)CC1)Nc1cccc(C(F)(F)F)c1 | inconclusive: 20.6 µM [cytotoxic, single point] |  |
| Cc1ccc(-c2nc3c(C)cccn3c2Nc2ccccc2C)s1 | inactive |  |
| COc1ccc(/C(C)=N/NC(=O)CNC(=O)c2ccco2)c(OC)c1 | inactive |  |
| Cc1nc([N+](=O)[O-])cn1CC(=O)c1ccc(OC(F)(F)F)cc1 | inactive |  |
| CCC(C)NC(=O)CN1C(=O)c2cccc3cccc1c23 (stereo not drawn) | inconclusive: 16.4 µM [cytotoxic, partial curve, poor fit] |  |
| COc1ccc(-c2nn(-c3ccccc3)cc2C(=O)NCC2CCCO2)cc1 (stereo not drawn) | inconclusive: 3.66 µM [cytotoxic, full curve] |  |
| Cc1ccc2nc(-c3ccccc3N)[nH]c2c1 | inconclusive: 20.6 µM [cytotoxic, partial curve] |  |
| O=c1oc2c(-c3cccc(F)c3)cc(O)cc2s1 | inactive |  |
| Cc1ccc(C)c(S(=O)(=O)N2CCN(c3ncccn3)CC2)c1 | inconclusive: 14.6 µM [cytotoxic, partial curve] |  |
| CC1=C(C(=O)Nc2cccc(F)c2)C(c2ccsc2)C2=C(CC(C)(C)CC2=O)N1 (stereo not drawn) | active: 14.6 µM |  |
| CCOc1cc(C(=S)N2CCCCC2)ccc1OS(=O)(=O)c1ccc(Cl)cc1 | active: 2.91 µM |  |
| O=C1CCC(=O)N1c1ccccc1-c1ccccc1 | inconclusive: 29.1 µM [rising, single point] |  |
| CCOc1ccccc1NS(=O)(=O)c1ccc2[nH]c3c(c2c1)CCCCC3 | inconclusive: 20.6 µM [cytotoxic, single point] |  |
| CCOc1ccc(CCNC(=O)c2cc3c(=O)n(C)c4ccccc4c3n2C)cc1OCC | inactive |  |
| O=C(c1cc2ccccc2c(=O)o1)N1CCc2ccccc2C1 | inconclusive: 16.4 µM [cytotoxic, single point] |  |
| CCOc1cc(-c2c(C#N)c(N)nc3c2CCCC3C)ccc1O (stereo not drawn) | active: 18.4 µM |  |

| Structure (SMILES) | Potency | activity change, negative = cytotoxicity |
| --- | --- | --- |
| CCOC(=O)C1=C(COC(=O)c2ccc([N+](=O)[O-])s2)NC(=O)NC1C (stereo not drawn) | inconclusive: 20.6 µM [cytotoxic, single point] |  |
| c1ccc(NC2=NCCN2CCC2CCCCC2)cc1 | inconclusive: 29.1 µM [rising, single point] |  |
| Clc1ccc(C2=CSC3=NCCN23)c(Cl)c1 | inactive |  |
| CCOc1ccc(/C=C2\SC(=O)N(CCNC(=O)C3COc4ccccc4O3)C2=O)cc1OC (stereo not drawn) | active: 16.4 µM |  |
| CCOC(=O)c1c(NC(=O)CSc2nnnn2C)sc(CC)c1C | inconclusive: 8.2 µM [cytotoxic, partial curve, poor fit] |  |
| COc1cccc(OC)c1OCCCOc1c(OC)cccc1OC | inactive |  |
| CCCCN(C=O)c1c(CC)nc2c(OCC(=O)C(C)(C)C)cccn12 | inactive |  |
| CC(C)CNC(=O)NC(=O)COC(=O)c1ccccc1Sc1ccc(C(F)(F)F)cc1[N+](=O)[O-] | inconclusive: 23.1 µM [cytotoxic, single point] |  |
| O=C1c2ccc(Br)cc2C(=O)N1c1ccc(Cc2ccncc2)cc1 | inconclusive: 20.6 µM [cytotoxic, partial curve] |  |
| COc1cccc(-c2cnc3c(NC=O)cc(-c4ccccc4)cn23)c1 | active: 7.31 µM |  |
| Cc1cc(C)c(C#N)c(OCC(=O)c2ccc(Br)cc2)n1 | active: 5.8 µM |  |
| O=C(N1CCN(c2ccccn2)CC1)C(Cl)(Cl)Cl | inconclusive: 20.6 µM [cytotoxic, single point] |  |
| N#C/C(=C\c1cccc(F)c1)c1nc(-c2cc3c(ccc4ccccc43)oc2=O)cs1 | inconclusive: 29.1 µM [rising, single point] |  |
| CC(C)CCOc1ccc(NC(=O)C2OC3OC(C)(C)OC3C3OC(C)(C)OC23)cc1 (stereo not drawn) | inactive |  |
| NC(COCc1ccccc1)c1csc(Nc2nccc(C(F)(F)F)n2)n1 (stereo not drawn) | inconclusive: 10.3 µM [cytotoxic, partial curve, poor fit] |  |
| COc1ccc(Br)cc1CN1CCN(S(=O)(=O)Cc2ccccc2)CC1 | inconclusive: 5.17 µM [cytotoxic, partial curve, poor fit] |  |
| Cc1ccc(NC(=O)Nc2ccc3nc(N4CCN(C)CC4)cc(C)c3c2)cc1F | inactive |  |
| CCOC(=O)c1ccc(NC(=O)c2ncn3c2C(=O)NC[C@@H]3C)cc1 | inconclusive: 0.0058 µM [rising, full curve, poor fit] |  |
| CCOC(=O)c1c(C)[nH]c(C(=O)OCC(=O)NCc2ccc(OC)c(OC)c2)c1C | active: 20.6 µM |  |
| CC(C)(C)C(=O)NC(=S)NNC(=O)c1ccc(-c2ccccc2)cc1 | active: 9.2 µM |  |
| N#CC1=C(N)N2C(=C(C#N)C1c1cccc(Br)c1)Nc1ccccc12 (stereo not drawn) | active: 5.8 µM |  |
| Cc1c(Cl)cccc1NC(=O)N1CCOc2ccccc21 | inconclusive: 13 µM [rising, partial curve] |  |
| CN1c2cccc3cccc(c23)N(C)C1(C)C | inactive |  |
